# Assay results as given in publication PMC10679814, “Yeast lunapark regulates the formation of trans-Sey1p complexes for homotypic ER membrane fusion” (iScience, 2023).
# Results are given in words; binding and its absence hold for the method and conditions named. Binding can be weak; no strength is given.
# B1: Lnp1p peptide, a synthetic peptide with the N-terminal region (amino acids 1-52) of Lnp1p (peptide, UniProt P38878 1-52, looked up)
# peptide: MFSALGKWVRGSRNDKDFVTKYTADLSQITSQIHQLDVALKKSQSILSQWQS
# notes: Lnp1p (yeast lunapark), S. cerevisiae, amino acids 1-52; also called LNP1 peptide; source: synthetic peptide (custom, Anygen)
# Biological target: Sey1p-ΔTM (S. cerevisiae)
# Assay: SEC; Superdex 200 (10/300), 20 mM HEPES-NaOH pH 7.4, 150 mM NaCl; Sey1p-ΔTM incubated at 30°C for 1 h with GMP-PNP, without or with the Lnp1p peptide; both purified
binder,measurement,value
B1,binding,binds
